# No constants are given. Whether binding was seen depends on the method and setting.
# B1: Neisserial heparin-binding antigen (NHBA) peptide 20 (protein, UniProt Q9JPP1 18-427)
# chain: CGGGGGGSPDVKSADTLSKPAAPVVAEKETEVKEDAPQAGSQGQGAPSTQGSQDMAAVSAENTGNGGAATTDKPKNEDEGPQNDMLQNSAESANQTGNNQPADSSDSAPASNPAPANGGSNFGRVDLANGVLIDGPSQNITLTHCKGDSCNGDNLLDEEAPSKSEFENLNESERIEKYKKDGKSDKFTNLVATAVQANGTNKYVIIYKDKSASSSFARFRRSARSRRSLPAEMPLIPVNQADTLIVDGEAVSLTGHSGNIFAPEGNYRYLTYGAEKLPGGSYALRVQGEPAKGEMLAGTAVYNGEVLHFHTENGRPYPTRGRFAAKVDFGSKSVDGIIDSGDDLHMGTQKFKAAIDGNGFKGTWTENGGGDVSGRFYGPAGEEVAGKYSYRPTDAEKGGFGVFAGKKEQD
# Biological target: Fab 10C3 (human)
# Experiment: condition: 100 nM (highest concentration of the titration, 6.25 to 100 nM); SPR; Biacore T200, 25 °C; Fab (800-1100 RU) captured by anti-Fab mAbs (Human Fab Capture Kit) on a CM5 chip; NHBA injected, single-cycle kinetics, five injections 6.25-100 nM, 30 µl/min; HBS-EP (10 mM HEPES, 150 mM NaCl, 3 mM EDTA, 0.05% P20, pH 7.4); 1:1 Langmuir model with mass-transfer term; duplicate; both purified
binder,measurement,value
B1,binding,no binding

# — publication PMC5458386, “Crystal structures of human Fabs targeting the Bexsero meningococcal vaccine antigen NHBA” (Acta Crystallographica. Section F, Structural Biology …, 2017)
